Results: the M2OR odorant receptor database
The list shows a part of the results, in another mix than the full data. The calls were merged from several studies; some rest on single wells. The list shows a part of the results. Some of the results follow.

Amino acid sequences for entries named in this document (tags omitted). A change or cut given only in a name is not applied to a line headed by its entry.
UniProt Q7TS48: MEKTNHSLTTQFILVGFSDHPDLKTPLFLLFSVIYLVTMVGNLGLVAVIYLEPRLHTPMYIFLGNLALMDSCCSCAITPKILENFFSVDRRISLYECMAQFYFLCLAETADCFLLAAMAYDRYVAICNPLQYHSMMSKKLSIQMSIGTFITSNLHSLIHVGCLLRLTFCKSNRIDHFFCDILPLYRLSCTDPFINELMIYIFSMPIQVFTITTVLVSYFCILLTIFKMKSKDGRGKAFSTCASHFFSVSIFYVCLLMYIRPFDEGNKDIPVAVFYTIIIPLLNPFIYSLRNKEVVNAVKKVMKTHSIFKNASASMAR
UniProt Q8VEZ0: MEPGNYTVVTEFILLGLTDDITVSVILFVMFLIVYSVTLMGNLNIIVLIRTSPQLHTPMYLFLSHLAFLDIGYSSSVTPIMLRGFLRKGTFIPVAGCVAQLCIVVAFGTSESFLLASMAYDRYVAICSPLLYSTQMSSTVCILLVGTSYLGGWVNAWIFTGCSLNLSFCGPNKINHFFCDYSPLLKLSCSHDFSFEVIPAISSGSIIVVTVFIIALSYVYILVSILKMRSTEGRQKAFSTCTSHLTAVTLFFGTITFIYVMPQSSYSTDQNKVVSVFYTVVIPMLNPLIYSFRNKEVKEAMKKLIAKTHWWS

How the values were obtained:
Conditions in all cases: stereoisomer not certain
Or10j5 (Mus musculus) = target: T1, Or10j5 (Mus musculus) (UniProt Q62007)
T1 sequence (whole entry): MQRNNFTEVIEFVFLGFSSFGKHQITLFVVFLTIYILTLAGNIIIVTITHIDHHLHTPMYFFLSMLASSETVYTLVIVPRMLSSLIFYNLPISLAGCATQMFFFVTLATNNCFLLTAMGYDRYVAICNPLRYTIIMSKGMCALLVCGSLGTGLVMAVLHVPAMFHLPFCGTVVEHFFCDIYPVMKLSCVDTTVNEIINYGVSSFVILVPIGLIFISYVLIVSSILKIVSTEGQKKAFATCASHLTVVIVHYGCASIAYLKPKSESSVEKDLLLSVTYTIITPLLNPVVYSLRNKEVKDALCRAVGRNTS
Procedure, shortened: (§1)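 Whether a receptor–molecule pair is responsive (active) rests on the original authors' judgment that its measured signal was statistically different from baseline. Pairs without that judgment are non-responsive (inactive). Sources used varied assay methods, commonly transient luciferase assays in mammalian cell lines.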

Or1m1 (Mus musculus) = target: T2, Or1m1 (Mus musculus) (UniProt Q8VFM9)
T2 sequence (whole entry): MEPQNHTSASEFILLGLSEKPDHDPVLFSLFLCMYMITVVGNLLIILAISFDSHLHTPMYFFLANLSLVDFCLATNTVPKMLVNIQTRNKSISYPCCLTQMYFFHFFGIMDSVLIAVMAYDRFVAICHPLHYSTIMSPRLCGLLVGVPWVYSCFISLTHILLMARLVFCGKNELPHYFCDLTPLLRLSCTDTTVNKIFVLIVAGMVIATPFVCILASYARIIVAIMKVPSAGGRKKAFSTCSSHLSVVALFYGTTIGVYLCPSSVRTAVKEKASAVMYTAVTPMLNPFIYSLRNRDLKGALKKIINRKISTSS
Procedure, shortened: as §1

Or2c1 (Mus musculus) = target: T3, Or2c1 (Mus musculus) (UniProt P23275)
T3 sequence (whole entry): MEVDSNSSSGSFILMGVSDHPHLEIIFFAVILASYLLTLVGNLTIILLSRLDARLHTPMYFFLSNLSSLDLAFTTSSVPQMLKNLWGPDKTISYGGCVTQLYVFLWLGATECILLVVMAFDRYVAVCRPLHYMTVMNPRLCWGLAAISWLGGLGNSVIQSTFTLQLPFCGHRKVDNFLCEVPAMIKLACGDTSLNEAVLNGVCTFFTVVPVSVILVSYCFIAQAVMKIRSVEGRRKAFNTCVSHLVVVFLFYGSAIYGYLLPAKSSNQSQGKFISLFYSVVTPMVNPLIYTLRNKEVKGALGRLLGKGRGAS
Procedure, shortened: as §1

Or5ar1 (Mus musculus) = target: T4, Or5ar1 (Mus musculus) (UniProt Q8VGS3)
T4 sequence (whole entry): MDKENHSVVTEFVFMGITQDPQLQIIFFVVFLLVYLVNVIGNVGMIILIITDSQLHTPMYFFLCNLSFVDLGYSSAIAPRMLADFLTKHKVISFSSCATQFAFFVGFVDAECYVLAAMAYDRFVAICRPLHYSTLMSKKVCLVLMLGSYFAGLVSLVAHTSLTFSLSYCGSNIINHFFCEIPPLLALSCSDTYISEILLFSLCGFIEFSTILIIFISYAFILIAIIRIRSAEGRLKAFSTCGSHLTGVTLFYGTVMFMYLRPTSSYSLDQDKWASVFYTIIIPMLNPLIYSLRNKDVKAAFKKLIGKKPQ
Procedure, shortened: as §1

OR9Q2 = system: T5, OR9Q2
T5 sequence (whole entry): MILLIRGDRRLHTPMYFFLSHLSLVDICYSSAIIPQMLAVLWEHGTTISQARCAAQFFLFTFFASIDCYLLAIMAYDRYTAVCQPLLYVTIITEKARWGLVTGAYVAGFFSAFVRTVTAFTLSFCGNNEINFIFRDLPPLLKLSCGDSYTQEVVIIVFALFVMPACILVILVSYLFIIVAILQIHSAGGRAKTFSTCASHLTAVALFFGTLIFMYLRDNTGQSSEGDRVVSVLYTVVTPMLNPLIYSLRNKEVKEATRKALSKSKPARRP
Procedure, shortened: as §1

ORM2B = system: T6, ORM2B
T6 sequence (whole entry): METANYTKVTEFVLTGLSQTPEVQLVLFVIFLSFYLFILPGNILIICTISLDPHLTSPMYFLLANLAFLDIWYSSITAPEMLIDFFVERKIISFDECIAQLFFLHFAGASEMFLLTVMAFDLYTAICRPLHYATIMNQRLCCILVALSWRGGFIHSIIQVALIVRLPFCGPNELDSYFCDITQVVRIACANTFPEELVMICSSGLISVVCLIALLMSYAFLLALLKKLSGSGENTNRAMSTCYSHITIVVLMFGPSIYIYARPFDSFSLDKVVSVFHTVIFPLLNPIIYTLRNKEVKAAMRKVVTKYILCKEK
Procedure, shortened: as §1

Or5k16 (Mus musculus) = Or5k16 (Mus musculus) (UniProt Q7TS48)
Procedure, shortened: as §1

Or5p57 (Mus musculus) = Or5p57 (Mus musculus) (UniProt Q8VEZ0)
Procedure, shortened: as §1

Measured: odorant receptor agonist call;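 further: active if original authors judged signal statistically different from baseline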

CCCCCCC=O
inactive: Or10j5 (Mus musculus) | Or1m1 (Mus musculus) | Or2c1 (Mus musculus) | Or5ar1 (Mus musculus)

CC(=O)OC1CC2CCC1(C)C2(C)C (stereo not drawn)
inactive: OR9Q2 | ORM2B | Or1m1 (Mus musculus) | Or5ar1 (Mus musculus)

CCCCO
inactive: OR9Q2 | ORM2B | Or10j5 (Mus musculus) | Or1m1 (Mus musculus) | Or5ar1 (Mus musculus)

CC1COCc2cc3c(cc21)C(C)(C)C(C)C3(C)C (stereo not drawn)
active: OR9Q2 | ORM2B | Or1m1 (Mus musculus)
inactive: Or5ar1 (Mus musculus)

CC12CCC(CC1)C(C)(C)O2
inactive: OR9Q2 | ORM2B | Or1m1 (Mus musculus) | Or5ar1 (Mus musculus)

CCCCCCCCCC=O
not listed: Or5k16 (Mus musculus) | Or5p57 (Mus musculus)
inactive: all other assays above

C=CCc1ccc(OC)c(OC)c1
inactive: OR9Q2 | ORM2B | Or1m1 (Mus musculus) | Or5ar1 (Mus musculus) | Or5k16 (Mus musculus)

CC(C)=CCCC(C)=CC=O
inactive: OR9Q2 | ORM2B | Or1m1 (Mus musculus) | Or5ar1 (Mus musculus)

C=C(C)C1CC=C(C)C(=O)C1 (stereo not drawn)
inactive: Or10j5 (Mus musculus) | Or1m1 (Mus musculus) | Or2c1 (Mus musculus) | Or5ar1 (Mus musculus)

CCCC(=O)O
inactive: OR9Q2 | ORM2B | Or10j5 (Mus musculus) | Or5p57 (Mus musculus)

O=C1CCCCCCCCCCCCCCO1
inactive: OR9Q2 | ORM2B | Or1m1 (Mus musculus) | Or5ar1 (Mus musculus)
